According to patent US20100041596A1:
These are yes or no findings as the source states them, for the method shown. In cells and extracts the contact can be indirect. Some results given as binding are weak or reduced against the parent protein; the word gives no strength.

Biological target: p80 TNFR, full-length (Homo sapiens (Human)) (UniProt P20333)
Test: co-immunoprecipitation, anti-HA blot, 293T cells

B1: p80 10-54 / p60 55-211 chimera (receptor, not shown: small tags and cut ends)
chain (part 1 of 2): LPAQVAFTPY
chain (part 2 of 2): YAPEPGSTCRLREYYDQTAQMCCSKCSPGQHAKVFCTKTSDTVCDCESGSFTASENHLRHCLSCSKCRKEMGQVEISSCTVDRDTVCGCRKNQYRHYWSENLFQCFNCSLCLNGTVHLSCQEKQNTVCTCHAGFFLRENECVSCSNCKKSLECTKLCLPQIENVKGTEDSGTTVLLPLVIFFGLCLLSLLFIGLMYRYQRWK
  binding: binds
